Assay results from article PMC6728359, “Crystal structure and chemical inhibition of essential schistosome host-interactive virulence factor carbonic anhydrase SmCA” (Communications Biology, 2019).

Protein sequences, listed by entry. Tags and fused reporters are not part of them. Residues count along the entry.
UniProt A0A3Q0KSG2, 21-298 limits assumed: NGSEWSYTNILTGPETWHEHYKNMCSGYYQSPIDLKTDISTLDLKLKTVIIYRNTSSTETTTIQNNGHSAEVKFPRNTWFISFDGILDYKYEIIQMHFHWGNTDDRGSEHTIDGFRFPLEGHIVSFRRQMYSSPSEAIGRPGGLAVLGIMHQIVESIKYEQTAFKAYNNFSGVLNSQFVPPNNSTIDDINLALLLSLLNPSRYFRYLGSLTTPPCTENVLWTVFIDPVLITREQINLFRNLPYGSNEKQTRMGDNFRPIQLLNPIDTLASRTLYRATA

Legend:
[1] = target: recombinant human isoform hCA II; conditions: read-out: Ki hCAII; cited from earlier work
[2] = target: rSmCA (recombinant SmCA, α-carbonic anhydrase) (Schistosoma mansoni, UniProt A0A3Q0KSG2); experiment: biochemical

SMILES | Ki [1] [nM] | Ki [2] [nM]
CCN[C@H]1C[C@H](C)S(=O)(=O)c2sc(S(N)(=O)=O)cc21 [DZA, dorzolamide] | 8 | –
CC(=O)Nc1nnc(S(N)(=O)=O)s1 [AAZ, acetazolamide] | – | 42.5
